Test results reported in the supplement of paper PMC8256030.
The other results are listed elsewhere or left out. Single values are uncertain here, since repeats match poorly.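 HEK293T cells were given each compound shortly before transfection with a reporter in which red mCherry is followed by the SARS-CoV-2 frameshift element and then GFP in the −1 frame, so GFP appears only after frameshifting.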

These compounds were tested on HEK293T (assay: percent viability (nuclei count) relative to control; higher = more viable cells). Conditions: 10 µM; 24 h.

| SMILES | percent viability |
| --- | --- |
| CCOC(=O)CC(=O)N1CCSC1COc1ccccc1OC (configuration not stated) [moguisteine] | 289% |
| CC(C)(Oc1ccc(Cl)cc1)C(=O)OCc1cccnc1 [nicofibrate] | 211% |
| CC(=O)NCCCS(=O)(=O)O | 214% |
| Cc1oc(=O)oc1CN1CCN(c2cc3c(cc2F)c(=O)c(C(=O)O)c2n3C(C)S2)CC1 (configuration not stated) | 99.9% |
| O=C(O)/C=C/c1ccc(Cn2ccnc2)cc1 [Ozagrel] | 209% |
| CC1=C(C(=O)O)N2C(=O)[C@@H](NC(=O)[C@H](N)c3ccc(O)cc3)[C@H]2SC1 | 251% |
| Cc1cc(-n2c(=O)[nH]c(=O)n(C)c2=O)ccc1Oc1ccc(S(=O)(=O)C(F)(F)F)cc1 [ponazuril] | 152% |
| Cc1cccc(C)c1NC(=O)c1cc(S(N)(=O)=O)c(Cl)cc1O [xipamide] | 321% |
| C[C@]12CCC(=O)C=C1CC[C@@H]1[C@@H]2[C@@H](O)C[C@]2(C=O)[C@@H](C(=O)CO)CC[C@@H]12 [aldosterone] | 159% |
| CC(=O)O[C@H]1C(=O)[C@@]2(C)[C@H]([C@H](OC(=O)c3ccccc3)[C@]3(O)C[C@H](OC(=O)[C@H](O)[C@@H](NC(=O)c4ccccc4)c4ccccc4)C(C)=C1C3(C)C)[C@]1(OC(C)=O)CO[C@@H]1C[C@@H]2O | 22.2% |
| CCOC(=O)c1ccc(O)cc1 | 175% |
| COc1cc(C=CC(=O)N2CCCCCCC2)cc(OC)c1OC | 246% |
| CC(=O)OC(C)C[N+](C)(C)C (configuration not stated) [methacholine chloride] | 127% |
| CN/C(=N\CCSCc1nc[nH]c1C)NC#N | 166% |
| COCCCN1CCC(NC(=O)c2cc(Cl)c(N)c3c2OCC3)CC1 [prucalopride] | 150% |
| Cc1cc(C)nc(NS(=O)(=O)c2ccc(N)cc2)n1 [sulfadimidine] | 186% |
| C[C@@H]1C[C@H]2[C@@H]3C[C@H](F)C4=CC(=O)C=C[C@]4(C)[C@@]3(F)[C@@H](O)C[C@]2(C)[C@@]1(O)C(=O)COC(=O)C(C)(C)C | 154% |
| Nc1ccc(S(N)(=O)=O)cc1 [sulfanilamide] | 329% |
| O=C1OC(c2ccc(O)cc2)(c2ccc(O)cc2)c2ccccc21 [phenolphthalein] | 166% |
| O=c1c2c(c1=O)N(CCP(=O)(O)O)CCCN2 [perzinfotel] | 89.2% |
| CCc1oc2ccccc2c1C(=O)c1ccc(O)cc1 [benzarone] | 41.7% |
| C[C@@H]1CC[C@@]2(OC1)O[C@H]1C[C@H]3[C@@H]4CC[C@H]5C[C@@H](O[C@@H]6O[C@H](CO)[C@@H](O[C@@H]7O[C@H](CO)[C@@H](O)[C@H](O)[C@H]7O)[C@H](O)[C@H]6O)CC[C@]5(C)[C@H]4CC[C@]3(C)[C@H]1[C@@H]2C [tiqueside] | 56.6% |
| COC(=O)C1=C(C)NC(C)=C(C(=O)OC(C)C)C1c1cccc2nonc12 (configuration not stated) [isradipine] | 251% |
| NCC(=O)CCC(=O)O | 334% |
| NC(=O)CN1C(=O)COc2ccccc21 [paraxazone] | 156% |
| CN1CCN(CCCCN2C(=O)CN(/N=C/c3ccc(-c4ccc(Cl)cc4)o3)C2=O)CC1 [azimilide] | 147% |
| Cc1onc(-c2ccccc2)c1C(=O)N[C@@H]1C(=O)N2[C@@H]1SC(C)(C)[C@@H]2C(=O)O | 221% |

Some of the entries above, reformatted:
SMILES | percent viability
CCOC(=O)c1ccc(O)cc1 | 175%
NC(=O)CN1C(=O)COc2ccccc21 [paraxazone] | 156%
